Measured values: doi:10.1101/503680 (bioRxiv, 2018)
Results are given in words; binding and its absence hold for the method and conditions named. In cells and extracts the contact can be indirect. Some results given as binding are weak or reduced against the parent protein; the word gives no strength.

By UniProt entry, the sequences of proteins in these tests, tags left out. Where a name states a change or a piece, a line headed by the entry shows the natural chain unless it says otherwise. Chains listed by the source or under a name are the forms on record and can include a tag or linker. Residues count along the entry.
FLAG-KIF3A-motor (P28741, residues 1-350): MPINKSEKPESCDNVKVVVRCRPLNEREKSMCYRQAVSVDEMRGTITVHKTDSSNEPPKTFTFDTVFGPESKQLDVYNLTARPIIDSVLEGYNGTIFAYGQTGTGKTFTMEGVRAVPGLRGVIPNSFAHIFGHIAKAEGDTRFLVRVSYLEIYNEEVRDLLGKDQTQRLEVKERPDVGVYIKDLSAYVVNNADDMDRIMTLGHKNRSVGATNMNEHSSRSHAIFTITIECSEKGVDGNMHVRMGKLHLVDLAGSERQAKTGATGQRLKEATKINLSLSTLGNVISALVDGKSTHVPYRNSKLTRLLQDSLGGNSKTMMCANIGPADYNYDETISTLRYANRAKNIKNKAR
GST-KIF3A-S689A-Tail (expressed in HEK293 cells) (P28741, form named): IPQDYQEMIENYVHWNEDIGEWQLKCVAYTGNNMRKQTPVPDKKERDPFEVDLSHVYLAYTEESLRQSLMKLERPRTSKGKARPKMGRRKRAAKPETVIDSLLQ

Biological target: FLAG-KIF3A-motor (mouse) (UniProt P28741)
Test: co-IP

binding: binds
Substance: GST-KIF3A-S689A-Tail (expressed in HEK293 cells) (from UniProt P28741 598-701) (domain or fragment)
